Measured values: patent publication US20120095062A1, “TRICYCLIC COMPOUNDS, COMPOSITIONS, AND METHODS” (Pfizer Inc., priority 2007, published 2012)

Assay: Dissociation index (side-effect biomarker versus anti-inflammatory biomarker)
Format: in vivo, mice
[1] = across mice in different models using plasma exposure to normalize
[2] = relative to prednisolone, the 10th table

Cc1ncccc1NC(=O)c1ccc2c(c1)CC[C@@H]1C[C@@](O)(C(F)(F)F)CC[C@@]21Cc1ccccc1 [Example 1, (4βS,7R,8αR)-4β-benzyl-7-hydroxy-N-(2-methylpyridin-3-yl)-7-(trifluoromethyl)-4β,5,6,7,8,8α,9,10-octahydrophenanthrene-2-carboxamide]
Dissociation Index BFR/disease incidence (EAUC50) [1]: 6.8 | Dissociation Index BFR/disease severity (EAUC50) [1]: 3.0 | Dissociation Index OC/TNFα (ED80) (ratio of ED80 doses): greater than 4 | Corrected Dissociation Index BFR/TNFα (EAUC50) [2]: 12.0 | Corrected Dissociation Index BFR/disease incidence (EAUC50) [2]: 17.0 | Corrected Dissociation Index BFR/disease severity (EAUC50) [2]: 15.0
